Results published in patent publication US20210093693A1.
Results are given in words; binding and its absence hold for the method and conditions named. For some of these results: Binding seen in cells or lysates may run through a third protein. Some results given as binding are weak or reduced against the parent protein; the word gives no strength. For some of these results: Where a sequence is shown, tags or fusion partners need not be part of it. One block for each molecule: values may come before it.

Sequences of proteins named here, by UniProt entry; tags and fusion partners are left off. A change or cut given only in a name is not applied to a line headed by its entry.
UniProt P49023: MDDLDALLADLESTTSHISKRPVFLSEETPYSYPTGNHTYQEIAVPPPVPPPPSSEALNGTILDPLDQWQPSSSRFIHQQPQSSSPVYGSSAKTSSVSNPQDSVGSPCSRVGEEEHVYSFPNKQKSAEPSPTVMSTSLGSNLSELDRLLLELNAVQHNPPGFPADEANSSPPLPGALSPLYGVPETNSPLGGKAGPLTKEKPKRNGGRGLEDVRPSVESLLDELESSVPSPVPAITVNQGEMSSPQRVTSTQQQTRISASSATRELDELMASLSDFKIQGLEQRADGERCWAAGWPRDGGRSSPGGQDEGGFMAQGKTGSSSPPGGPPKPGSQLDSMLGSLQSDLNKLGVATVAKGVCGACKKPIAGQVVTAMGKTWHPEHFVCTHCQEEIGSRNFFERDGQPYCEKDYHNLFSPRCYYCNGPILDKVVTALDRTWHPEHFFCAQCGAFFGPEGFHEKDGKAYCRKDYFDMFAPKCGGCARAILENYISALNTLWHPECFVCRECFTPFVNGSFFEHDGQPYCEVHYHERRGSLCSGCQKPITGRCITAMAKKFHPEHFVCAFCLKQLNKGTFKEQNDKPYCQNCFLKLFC
UniProt P17655: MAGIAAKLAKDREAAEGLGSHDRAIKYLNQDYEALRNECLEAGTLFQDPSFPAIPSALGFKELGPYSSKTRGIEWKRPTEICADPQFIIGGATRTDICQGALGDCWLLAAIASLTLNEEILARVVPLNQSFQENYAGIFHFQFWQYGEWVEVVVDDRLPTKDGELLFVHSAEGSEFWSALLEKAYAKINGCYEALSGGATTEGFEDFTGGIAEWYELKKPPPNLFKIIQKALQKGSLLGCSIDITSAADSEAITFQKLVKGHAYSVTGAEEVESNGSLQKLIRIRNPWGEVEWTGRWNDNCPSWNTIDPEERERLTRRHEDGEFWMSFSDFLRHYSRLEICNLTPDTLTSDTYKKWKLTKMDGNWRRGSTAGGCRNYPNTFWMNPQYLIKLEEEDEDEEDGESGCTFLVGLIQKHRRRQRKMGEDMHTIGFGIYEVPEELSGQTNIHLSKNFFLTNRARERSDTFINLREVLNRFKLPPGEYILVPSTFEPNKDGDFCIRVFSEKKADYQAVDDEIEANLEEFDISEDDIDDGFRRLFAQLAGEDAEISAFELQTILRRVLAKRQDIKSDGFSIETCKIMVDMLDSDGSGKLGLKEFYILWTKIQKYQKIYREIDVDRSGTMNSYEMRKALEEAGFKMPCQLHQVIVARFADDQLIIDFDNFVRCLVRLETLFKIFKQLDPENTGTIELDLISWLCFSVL

Key:
[1] = target: Recombinant paxillin-His protein (UniProt P49023); experiment: GST pulldown (FIG. 4B)
[2] = target: Recombinant paxillin-His protein (UniProt P49023); experiment: GST pulldown with proteins overexpressed in bacteria
[3] = target: paxillin (endogenous, in HDF cells) (human (HDF cells)) (UniProt P49023); experiment: immunoprecipitation with anti-calpain-2, immunoblotting for paxillin, HDF cells
[4] = target: paxillin (endogenous, in HDF cells) (human (HDF cells)) (UniProt P49023); experiment: immunoprecipitation with anti-paxillin antibody from siβPIX-treated HDF cells, immunoblotting
[5] = target: paxillin (endogenous, in HDF cells) (human (HDF cells)) (UniProt P49023); experiment: immunoprecipitation and immunoblotting, HDF cells (FIG. 3A)
[6] = target: paxillin (endogenous, in HDF cells) (human (HDF cells)) (UniProt P49023); experiment: co-immunoprecipitation, HDF cells
[7] = target: paxillin (endogenous, in HDF cells) (human (HDF cells)) (UniProt P49023); experiment: immunoprecipitation with anti-calpain 2 and immunoblotting, HDF cells (FIG. 4A)
[8] = target: Recombinant paxillin-His protein (UniProt P49023); experiment: competition on bead-bound paxillin, competitor calpain-2, immunoblotting
[9] = target: Recombinant paxillin-His protein (UniProt P49023); experiment: competition on Ni2+ bead-bound paxillin, competitor GST-calpain-2; GST-GIT1-CT added at 0, 1, 3 and 10 µg; immunoblotting
[10] = target: Recombinant paxillin-His protein (UniProt P49023); experiment: competition on bead-bound paxillin, competitor GST-calpain-2, immunoblotting (FIG. 5A)
[11] = target: paxillin (endogenous, in HDF cells) (human (HDF cells)) (UniProt P49023); experiment: co-immunoprecipitation with anti-paxillin antibody from siβPIX-treated HDF cells overexpressing GFP or GFP-GIT-CT, immunoblotting
[12] = target: paxillin (endogenous, in HDF cells) (human (HDF cells)) (UniProt P49023); experiment: co-immunoprecipitation from siβPIX-treated HDF cells (FIG. 5B)
[13] = target: paxillin (endogenous, in HDF cells) (human (HDF cells)) (UniProt P49023); experiment: immunoprecipitation with anti-AMPH-I, immunoblotting for paxillin, HDF cells
[14] = target: paxillin (endogenous, in HDF cells) (human (HDF cells)) (UniProt P49023); experiment: immunoprecipitation with anti-AMPH-I and immunoblotting, HDF cells (FIG. 4A)
[15] = target: Recombinant paxillin-His protein (UniProt P49023); experiment: GST pulldown with AMPH-NT and AMPH-CT regions
[16] = target: Recombinant paxillin-His protein (UniProt P49023); experiment: GST pulldown
[17] = target: Recombinant paxillin-His protein (UniProt P49023); experiment: GST pulldown (FIG. 4C)

Molecule: GST-calpain-2 (from UniProt P17655 1-700) (enzyme)
binding [1]: binds | binding [2]: binds

B1: GST-GIT1-CT (GIT1 C-terminus, amino acids 376-770) (protein, not shown: a dimerising Fc or GST)
chain: LELSARNQSDLDDQHDYDSVASDEDTDQEPLPSAGATRNNRARSMDSSDLSDGAVTLQEYLELKKALATSEAKVQQLMKVNSSLSDELRKLQREIHKLQAENLQLRQPPGPVPVPSLPSERAEHTLMGPGGSTHRRDRQAFSMYEPGSALKPFGGAPGDELATRLQPFHSTELEDDAIYSVHVPAGLYRIRKGVSASSVTFTPSSPLLSSSQEGSRHASKLSRHGSGAESDYENTQSGEPLLGLEGKRFLELSKEDELHAELESLDGDPDPGLPSTEDVILKTEQVTKNIQELLRAAQEFKHDSFVPCSEKIHLAVTEMASLFPKRPALEPVRSSLRLLNASAYRLQSECRKTVPPEPGAPVDFQLLTQQVIQCAYDIAKAAKQLVTITTREKKQ
binding [8]: binds | binding [9]: binds | binding [10]: binds

B2: GFP-GIT-CT (protein, not shown: large carriers)
chain: B1 chain
binding [11]: binds | binding [12]: binds

B3: AMPH-I (amphiphysin-I) (endogenous, in HDF cells) (protein, human (HDF cells), UniProt P49418 1-695, looked up)
chain: MADIKTGIFAKNVQKRLNRAQEKVLQKLGKADETKDEQFEEYVQNFKRQEAEGTRLQRELRGYLAAIKGMQEASMKLTESLHEVYEPDWYGREDVKMVGEKCDVLWEDFHQKLVDGSLLTLDTYLGQFPDIKNRIAKRSRKLVDYDSARHHLEALQSSKRKDESRISKAEEEFQKAQKVFEEFNVDLQEELPSLWSRRVGFYVNTFKNVSSLEAKFHKEIAVLCHKLYEVMTKLGDQHADKAFTIQGAPSDSGPLRIAKTPSPPEEPSPLPSPTASPNHTLAPASPAPARPRSPSQTRKGPPVPPLPKVTPTKELQQENIISFFEDNFVPEISVTTPSQNEVPEVKKEETLLDLDFDPFKPEVTPAGSAGVTHSPMSQTLPWDLWTTSTDLVQPASGGSFNGFTQPQDTSLFTMQTDQSMICNLAESEQAPPTEPKAEEPLAAVTPAVGLDLGMDTRAEEPVEEAVIIPGADADAAVGTLVSAAEGAPGEEAEAEKATVPAGEGVSLEEAKIGTETTEGAESAQPEAEELEATVPQEKVIPSVVIEPASNHEEEGENEITIGAEPKETTEDAAPPGPTSETPELATEQKPIQDPQPTPSAPAMGAADQLASAREASQELPPGFLYKVETLHDFEAANSDELTLQRGDVVLVVPSDSEADQDAGWLVGVKESDWLQYRDLATYKGLFPENFTRRLD
binding [13]: binds | binding [4]: binds | binding [14]: binds | binding [6]: binds

Now from value to molecule:

binding [3]: binds | binding [4]: binds | binding [5]: binds | binding [6]: binds | binding [7]: binds
Molecule: calpain-2 (endogenous, in HDF cells) (from UniProt P17655 2-700) (enzyme)

binding [15]: binds | binding [16]: binds | binding [17]: binds
B4: GST-tagged amphiphysin I N-terminal construct (NT, a.a. 1-351) (protein, UniProt P49418 1-351, looked up, not shown: a dimerising Fc or GST)
chain: MADIKTGIFAKNVQKRLNRAQEKVLQKLGKADETKDEQFEEYVQNFKRQEAEGTRLQRELRGYLAAIKGMQEASMKLTESLHEVYEPDWYGREDVKMVGEKCDVLWEDFHQKLVDGSLLTLDTYLGQFPDIKNRIAKRSRKLVDYDSARHHLEALQSSKRKDESRISKAEEEFQKAQKVFEEFNVDLQEELPSLWSRRVGFYVNTFKNVSSLEAKFHKEIAVLCHKLYEVMTKLGDQHADKAFTIQGAPSDSGPLRIAKTPSPPEEPSPLPSPTASPNHTLAPASPAPARPRSPSQTRKGPPVPPLPKVTPTKELQQENIISFFEDNFVPEISVTTPSQNEVPEVKKEETL
